# Test results from PMC8257531.
# Protein sequences, listed by entry. Tags and fused reporters are not part of them.
# UniProt Q13439: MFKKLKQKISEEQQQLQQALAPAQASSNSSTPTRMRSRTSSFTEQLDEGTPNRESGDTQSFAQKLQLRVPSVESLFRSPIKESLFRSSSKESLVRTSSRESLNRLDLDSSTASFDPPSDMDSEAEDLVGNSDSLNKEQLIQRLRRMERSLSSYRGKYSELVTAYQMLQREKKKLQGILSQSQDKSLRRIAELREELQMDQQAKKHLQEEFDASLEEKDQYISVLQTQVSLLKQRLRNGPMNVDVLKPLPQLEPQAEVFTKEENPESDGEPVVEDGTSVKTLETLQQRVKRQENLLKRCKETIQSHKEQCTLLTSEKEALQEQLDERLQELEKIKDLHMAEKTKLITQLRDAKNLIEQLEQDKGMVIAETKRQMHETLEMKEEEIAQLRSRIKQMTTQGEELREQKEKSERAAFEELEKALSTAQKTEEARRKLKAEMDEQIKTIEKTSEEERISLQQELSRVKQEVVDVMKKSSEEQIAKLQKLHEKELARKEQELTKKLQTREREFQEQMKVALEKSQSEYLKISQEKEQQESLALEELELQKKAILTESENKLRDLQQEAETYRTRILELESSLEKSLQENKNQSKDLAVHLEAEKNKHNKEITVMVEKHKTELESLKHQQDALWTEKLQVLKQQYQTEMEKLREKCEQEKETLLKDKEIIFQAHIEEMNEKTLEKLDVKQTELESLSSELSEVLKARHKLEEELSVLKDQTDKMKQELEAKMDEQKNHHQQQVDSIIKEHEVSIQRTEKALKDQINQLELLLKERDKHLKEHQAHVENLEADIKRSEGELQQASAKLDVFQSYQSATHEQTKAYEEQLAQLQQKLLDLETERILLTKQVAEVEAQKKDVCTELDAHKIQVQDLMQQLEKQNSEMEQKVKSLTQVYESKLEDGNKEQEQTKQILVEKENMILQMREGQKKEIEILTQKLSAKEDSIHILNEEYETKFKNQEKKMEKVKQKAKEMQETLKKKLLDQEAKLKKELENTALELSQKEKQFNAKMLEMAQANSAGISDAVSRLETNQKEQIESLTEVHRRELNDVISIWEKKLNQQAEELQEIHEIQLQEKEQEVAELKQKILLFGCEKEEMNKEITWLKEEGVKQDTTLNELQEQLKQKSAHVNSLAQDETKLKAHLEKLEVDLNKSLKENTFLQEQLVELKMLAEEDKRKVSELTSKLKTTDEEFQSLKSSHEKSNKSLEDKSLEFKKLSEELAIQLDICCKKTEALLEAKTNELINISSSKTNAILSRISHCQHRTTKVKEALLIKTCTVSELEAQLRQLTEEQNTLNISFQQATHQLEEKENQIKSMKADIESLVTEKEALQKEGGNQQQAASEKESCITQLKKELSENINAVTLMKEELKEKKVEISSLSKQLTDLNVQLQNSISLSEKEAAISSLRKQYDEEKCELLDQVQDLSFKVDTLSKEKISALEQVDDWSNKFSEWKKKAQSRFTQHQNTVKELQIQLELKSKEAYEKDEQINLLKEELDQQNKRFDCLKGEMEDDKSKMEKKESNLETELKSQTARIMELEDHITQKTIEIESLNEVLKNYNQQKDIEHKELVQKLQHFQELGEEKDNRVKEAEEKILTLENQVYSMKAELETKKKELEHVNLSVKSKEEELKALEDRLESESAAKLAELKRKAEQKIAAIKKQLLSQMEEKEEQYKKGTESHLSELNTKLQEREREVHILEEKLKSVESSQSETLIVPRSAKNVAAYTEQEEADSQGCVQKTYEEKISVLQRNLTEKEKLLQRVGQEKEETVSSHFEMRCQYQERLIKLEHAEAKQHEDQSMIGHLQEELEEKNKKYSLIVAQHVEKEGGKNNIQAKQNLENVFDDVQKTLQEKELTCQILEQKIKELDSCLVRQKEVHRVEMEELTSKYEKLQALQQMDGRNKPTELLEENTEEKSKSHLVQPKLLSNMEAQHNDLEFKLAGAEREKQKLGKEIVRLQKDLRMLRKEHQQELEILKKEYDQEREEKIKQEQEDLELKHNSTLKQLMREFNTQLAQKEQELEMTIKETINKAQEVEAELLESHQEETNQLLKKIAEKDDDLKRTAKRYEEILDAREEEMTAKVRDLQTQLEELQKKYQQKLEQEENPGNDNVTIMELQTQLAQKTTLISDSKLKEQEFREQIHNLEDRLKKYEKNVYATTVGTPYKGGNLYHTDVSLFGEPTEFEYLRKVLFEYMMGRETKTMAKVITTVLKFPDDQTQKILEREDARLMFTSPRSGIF
# UniProt Q14789: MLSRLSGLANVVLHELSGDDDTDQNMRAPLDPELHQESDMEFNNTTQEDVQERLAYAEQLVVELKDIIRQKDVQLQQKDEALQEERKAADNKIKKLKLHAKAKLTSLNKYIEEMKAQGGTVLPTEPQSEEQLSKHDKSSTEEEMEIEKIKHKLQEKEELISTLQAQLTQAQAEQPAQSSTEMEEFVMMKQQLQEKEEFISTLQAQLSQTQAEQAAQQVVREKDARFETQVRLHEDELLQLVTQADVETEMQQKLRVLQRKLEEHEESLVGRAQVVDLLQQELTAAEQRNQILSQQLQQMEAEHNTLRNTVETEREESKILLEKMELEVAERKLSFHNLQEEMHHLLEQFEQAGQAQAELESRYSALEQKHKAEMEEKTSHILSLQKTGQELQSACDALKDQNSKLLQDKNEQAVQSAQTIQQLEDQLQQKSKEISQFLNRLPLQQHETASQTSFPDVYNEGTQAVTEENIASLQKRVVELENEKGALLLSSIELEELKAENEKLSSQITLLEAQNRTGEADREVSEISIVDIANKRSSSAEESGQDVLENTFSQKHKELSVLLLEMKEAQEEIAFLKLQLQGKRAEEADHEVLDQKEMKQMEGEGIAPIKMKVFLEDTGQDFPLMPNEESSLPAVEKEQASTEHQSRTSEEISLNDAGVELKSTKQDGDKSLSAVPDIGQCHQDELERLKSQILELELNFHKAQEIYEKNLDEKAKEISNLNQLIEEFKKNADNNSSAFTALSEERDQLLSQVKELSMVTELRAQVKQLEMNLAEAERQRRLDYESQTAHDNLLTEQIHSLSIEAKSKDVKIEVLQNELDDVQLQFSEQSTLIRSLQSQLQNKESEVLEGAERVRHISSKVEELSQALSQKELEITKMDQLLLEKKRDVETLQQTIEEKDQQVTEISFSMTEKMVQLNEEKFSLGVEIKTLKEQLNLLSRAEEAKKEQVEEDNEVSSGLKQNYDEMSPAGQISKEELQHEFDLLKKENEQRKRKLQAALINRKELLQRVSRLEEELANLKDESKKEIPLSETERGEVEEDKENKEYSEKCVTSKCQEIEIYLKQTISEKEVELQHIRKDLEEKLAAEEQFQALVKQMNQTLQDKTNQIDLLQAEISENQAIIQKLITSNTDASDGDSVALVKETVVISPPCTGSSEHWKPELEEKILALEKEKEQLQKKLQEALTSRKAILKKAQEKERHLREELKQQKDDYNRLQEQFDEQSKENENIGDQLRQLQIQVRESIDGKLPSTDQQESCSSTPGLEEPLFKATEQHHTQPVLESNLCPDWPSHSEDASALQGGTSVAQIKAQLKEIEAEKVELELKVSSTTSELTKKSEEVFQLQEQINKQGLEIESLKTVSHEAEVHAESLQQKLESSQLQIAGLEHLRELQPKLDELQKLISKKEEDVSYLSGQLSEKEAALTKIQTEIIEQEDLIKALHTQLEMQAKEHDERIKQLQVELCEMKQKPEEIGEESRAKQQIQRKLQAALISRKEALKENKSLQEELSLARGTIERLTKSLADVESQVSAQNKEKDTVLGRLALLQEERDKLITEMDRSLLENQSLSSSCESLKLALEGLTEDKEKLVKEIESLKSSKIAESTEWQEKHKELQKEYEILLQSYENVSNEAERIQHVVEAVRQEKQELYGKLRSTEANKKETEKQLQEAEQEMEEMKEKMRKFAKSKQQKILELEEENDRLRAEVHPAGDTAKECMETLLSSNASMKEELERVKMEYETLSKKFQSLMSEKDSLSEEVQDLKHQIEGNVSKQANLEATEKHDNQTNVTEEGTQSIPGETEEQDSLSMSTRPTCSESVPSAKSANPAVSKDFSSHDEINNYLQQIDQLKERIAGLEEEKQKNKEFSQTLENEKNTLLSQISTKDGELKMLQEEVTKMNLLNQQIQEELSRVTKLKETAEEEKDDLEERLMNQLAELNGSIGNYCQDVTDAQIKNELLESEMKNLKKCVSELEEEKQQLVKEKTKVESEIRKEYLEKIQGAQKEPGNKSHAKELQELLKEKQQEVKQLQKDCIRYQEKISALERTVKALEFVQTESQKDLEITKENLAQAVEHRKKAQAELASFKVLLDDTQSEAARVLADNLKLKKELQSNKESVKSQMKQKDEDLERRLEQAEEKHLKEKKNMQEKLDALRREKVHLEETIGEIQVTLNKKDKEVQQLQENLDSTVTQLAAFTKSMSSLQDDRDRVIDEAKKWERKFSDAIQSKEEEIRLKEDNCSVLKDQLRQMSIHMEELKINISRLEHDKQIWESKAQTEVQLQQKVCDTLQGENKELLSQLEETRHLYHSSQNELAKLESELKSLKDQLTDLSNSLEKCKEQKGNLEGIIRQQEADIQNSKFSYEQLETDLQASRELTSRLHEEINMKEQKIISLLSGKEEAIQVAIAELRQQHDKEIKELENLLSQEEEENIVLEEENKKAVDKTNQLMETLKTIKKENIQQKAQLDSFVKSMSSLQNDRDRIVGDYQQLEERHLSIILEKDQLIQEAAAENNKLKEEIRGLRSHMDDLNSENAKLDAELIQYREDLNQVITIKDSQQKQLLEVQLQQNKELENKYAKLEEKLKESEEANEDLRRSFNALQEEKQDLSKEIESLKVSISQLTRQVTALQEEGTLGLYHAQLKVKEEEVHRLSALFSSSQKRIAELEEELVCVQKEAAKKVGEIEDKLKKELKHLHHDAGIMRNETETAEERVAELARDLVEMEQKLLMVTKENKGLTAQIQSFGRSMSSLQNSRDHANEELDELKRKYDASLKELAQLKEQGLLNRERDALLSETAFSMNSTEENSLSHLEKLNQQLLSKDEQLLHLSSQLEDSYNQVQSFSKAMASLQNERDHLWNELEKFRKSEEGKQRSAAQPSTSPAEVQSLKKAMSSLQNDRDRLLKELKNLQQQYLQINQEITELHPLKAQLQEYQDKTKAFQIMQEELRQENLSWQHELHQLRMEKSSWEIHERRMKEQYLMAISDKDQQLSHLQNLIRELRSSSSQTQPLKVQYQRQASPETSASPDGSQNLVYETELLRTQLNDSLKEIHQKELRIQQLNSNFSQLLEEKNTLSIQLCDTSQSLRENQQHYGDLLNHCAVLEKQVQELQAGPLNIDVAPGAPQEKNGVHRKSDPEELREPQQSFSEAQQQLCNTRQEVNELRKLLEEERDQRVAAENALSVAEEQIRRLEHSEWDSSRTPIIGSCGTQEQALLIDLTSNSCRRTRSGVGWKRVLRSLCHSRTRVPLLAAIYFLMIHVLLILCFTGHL
# No constants are given. Whether binding was seen depends on the method and setting. In cells and extracts the contact can be indirect. These calls come from enrichment with a bait or labelling near it, and not all partners need be listed.
# Biological target: T1, ARL15^A86L (BioID bait) (UniProt Q9NXU5)
# T1 sequence: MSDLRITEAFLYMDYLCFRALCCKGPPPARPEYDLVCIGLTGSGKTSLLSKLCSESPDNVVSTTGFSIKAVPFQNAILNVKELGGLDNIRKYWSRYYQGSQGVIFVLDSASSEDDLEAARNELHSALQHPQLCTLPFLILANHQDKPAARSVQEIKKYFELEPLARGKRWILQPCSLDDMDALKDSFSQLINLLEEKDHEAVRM
# Test: proximity labelling; BioID; cleared lysates of ARL15^A86L expressing Flp-In T-REx HeLa cells on streptavidin beads, on-bead trypsin digestion, mass spectrometry; SAINT AvgP >= 0.95
row,Substance,binding
1,GOLGA4 (from UniProt Q13439 1-2230),binds
2,GOLGB1 (from UniProt Q14789 1-3259),binds
